The text below walks through data of PMC12493166, “The ClpA chaperone and the two adaptor proteins modulate the fate of the model substrate tagged with a SsrA-degron of Leptospira” (Biochemical Journal, 2025).

Assay [1] concerns the target T1, LinClpP2 (ClpP2 isoform of the Clp protease of Leptospira interrogans) (L. interrogans) (UniProt Q72R01).
T1 sequence: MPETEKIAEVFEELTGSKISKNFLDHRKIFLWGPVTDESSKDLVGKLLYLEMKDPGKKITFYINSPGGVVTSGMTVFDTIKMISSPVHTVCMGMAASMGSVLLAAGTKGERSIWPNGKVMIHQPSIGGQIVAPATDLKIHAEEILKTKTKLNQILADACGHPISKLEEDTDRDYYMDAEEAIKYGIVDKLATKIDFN
As to the kind of experiment: ELISA; LinClpA–LinClpP (1 μM) in the presence and absence of nucleotides (2 mM: ATP, CTP, GTP and UTP); Supplementary Figure S5B; both purified. In general terms: In an ELISA, binding on a coated surface is turned into a signal by an enzyme label.

Assay [2] addresses T2, LinClpS2 (Clp adaptor protein ClpS2 of Leptospira interrogans) (L. interrogans serovar Copenhageni strain Fiocruz L1-130) (UniProt Q72RD1).
T2 sequence: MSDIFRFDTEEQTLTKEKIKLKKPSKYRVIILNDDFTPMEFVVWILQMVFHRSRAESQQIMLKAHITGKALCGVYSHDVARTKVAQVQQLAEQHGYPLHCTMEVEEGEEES
Description: ELISA; LinClpP1, LinClpP2, LinClpS1 or LinClpS2 (1 μM/well) coated overnight at 4°C; blocked with 3% BSA in PBS; ATP-bound LinClpA or LinClpA^∆N (0–3 μM) overlaid 2 hours at 37°C; detected with mouse anti-LinClpA; Kd by Hill plot analysis; both purified.

Results are given in words; binding and its absence hold for the method and conditions named. A result given as binding can be weak or reduced; the word gives no strength.

With “LinClpA (ClpA ATPase chaperone of Leptospira interrogans) (enzyme)”, the binding result in assay [1] is reported as “binds”. Take “LinClpA^∆N (N-domain-deleted variant of LinClpA) (domain or fragment)”: in assay [2], the binding result is recorded as “binds”.
